# According to PubChem BioAssay AID540256 (National Center for Advancing Translational Sciences (NCATS), 2011):
# Hit rate of the full screen: of about 300,000 compounds, about 3,700 (1.2%) were called active. The inconclusive results got no clear call from the source; some entries with a clear call stand among them for comparison. Calls come from the whole dose curve; tested in HEK293 cells. Potencies beside an inconclusive call are fits to weak or partial responses and may not hold up.
# Assay: qHTS for Inhibitors of binding or entry into cells for Lassa Virus; note: nearly all actives have a fitted effect of over 50% in size
# Conditions: Lassa virus pseudotype entry inhibition, cell reporter; activity change, negative = inhibition: at 37.9 µM (top of the series) unless noted
# % is set by controls: 0 for no effect and ±100 for the full control effect; potency is the fitted concentration of half-maximal effect.
Structure (SMILES),Potency,"activity change, negative = inhibition"
Cc1cc(C)n(CCc2nc(-c3cc4ccccc4o3)cs2)n1,"inconclusive: 7.08 µM [inhibitor, partial curve]",–
CCOC(=O)Nc1ccc2c(CN3CCN(S(=O)(=O)c4ccccc4F)CC3)cc(=O)oc2c1,"inconclusive: 35.5 µM [inhibitor, single point]",–
O=S(=O)(NCc1nnc2ccccn12)c1ccc(F)cc1,–,inactive: 0.685% [at 46.1 µM]
CCOC(=O)C(NC(=O)c1ccc(OC)cc1)(N1CCCC1=O)C(F)(F)F (centres undefined),–,inactive: -0.0166%
CCN(CC)S(=O)(=O)c1ccc(C)c(NC(=S)NC2CCCCC2)c1,"inconclusive: 35.5 µM [inhibitor, single point]",–
CC(C)(C)C(=O)/C=C(\N)c1ccccn1,–,inactive: 4.4%
Cc1cc(=O)[nH]c(SCC(=O)NCc2ccco2)n1,"inconclusive: 17.8 µM [activator, partial curve, poor fit]",–
O=C(c1ccccc1F)N1CCN(Cc2nc3sc4c(c3c(=O)[nH]2)CCCC4)CC1,"inconclusive: 20 µM [inhibitor, partial curve]",–
Cc1cc(C)c(Cn2c(C(O)c3ccccc3)nc3ccccc32)c(C)c1 (centres undefined),"inconclusive: 0.708 µM [inhibitor, single point]",–
CN(CC(=O)Nc1c(Cl)cccc1Cl)C(=O)CC1Sc2ccccc2NC1=O (centres undefined),–,inactive: 1.67% [at 46.1 µM]
N#C/C(=C(/O)COC(=O)CCC1CCCCC1)c1nc2ccccc2[nH]1,"inconclusive: 29.1 µM [inhibitor, single point]",–
CCOC(=O)c1[nH]cnc1C(=O)Nc1ccc(F)cc1,"inconclusive: 3.98 µM [inhibitor, partial curve, poor fit]",–
COc1ccc(-c2nsc3c(N4CCCCC4)ncnc23)cc1,"inconclusive: 10.3 µM [inhibitor, partial curve, poor fit]",–
CC(C)(C)C(=O)Nc1cccc(-c2nc3ccccc3[nH]2)c1,–,inactive: 0.354%
N#C/C(=C\c1ccc(-c2cc(Cl)ccc2Cl)o1)C(=O)Nc1ccccc1C(=O)O,"inconclusive: 17.8 µM [inhibitor, single point]",–
O=C(CSc1nc2ccccc2n1Cc1ccccc1Cl)NCc1ccccc1,"inconclusive: 10 µM [inhibitor, partial curve, poor fit]",–
COC(=O)N1CCN(c2ccc(Cl)c(Cl)c2)CC1,"inconclusive: 25.9 µM [inhibitor, single point]",–
CCOc1ccc(N2CC(C(=O)Nc3cccc(S(=O)(=O)N4CCCC4)c3)CC2=O)cc1 (centres undefined),"inconclusive: 11.2 µM [inhibitor, single point]",–
COc1ccccc1CC(=O)N1CCN(c2cccc(C(F)(F)F)c2)CC1,"inconclusive: 20.6 µM [inhibitor, single point]",–

# As entered above:
# Value for CCOC(=O)C(NC(=O)c1ccc(OC)cc1)(N1CCCC1=O)C(F)(F)F (centres undefined) under activity change, negative = inhibition: inactive: -0.0166%
# Value for O=C(c1ccccc1F)N1CCN(Cc2nc3sc4c(c3c(=O)[nH]2)CCCC4)CC1 under Potency: inconclusive: 20 µM [inhibitor, partial curve]
